Test results: patent US20120053076A1, “METHODS FOR IDENTIFICATION” (Cambridge Enterprise Limited, priority 2009, published 2012)

How the values were obtained:
THP-1 cells = assay: MCP-1 induced THP-1 cell migration, Transwell assay; type: cell-based, human; settings: for RATIO: classical vs BSCI potency; for “Classical”:“BSCI” potency ratio Human: Table 3, insulin suppression vs THP-1 migration
Method: Leukocyte migration was measured using the 96-well format micro Transwell® assay system from Neuroprobe (Gaithersburg, Md., USA). In principle, this assay consists of two chambers separated by a porous membrane. The chemoattractant is placed in the lower compartment and the cells are placed in the upper compartment.
The method was performed essentially as previously described (Reckless & Grainger (1999) Biochem. J. 340:803-11).
First, the cell suspension to be placed in the upper compartment was prepared. The THP-1 cells were pelleted by centrifugation (770×g; 4 mins) and washed with Geys Balanced Salt Solution with 1 mg/ml BSA (GBSS+BSA). This wash was then repeated, and the cells re-pelleted before being resuspended in a small volume of GBSS+BSA for counting, for example using a standard haemocytometer.
The volume of GBSS+BSA was then adjusted depending on the number of cells present so that the cells were at final density of 4.45×10^6 cells per ml of GBSS+BSA. This ensured that there were 100,000 THP-1 cells in each 25 μl of the solution to be placed in the upper chamber of the plate.
The suspension of THP-1 cells at 4.45×10^6 cells/ml was divided into three pots. […] To the second pot, the BSCI was added at the same concentration as in the first pot, but additionally the sstr2 antagonist was also added (for example BIM 23454 [Tulipano et al. (2002) 143:1218-24] or BIM 23627 were added at 66 nM final concentration from a stock solution in GBSS). To the third pot, GBSS+BSA plus vehicle as appropriate was added so that the volumes in three pots are equal, acting as a control.
Next, the chemoattractant solution to be placed in the lower compartment was prepared. MCP-1 was diluted in GBSS+BSA to give a final concentration of 25 ng/ml (after all additions). Note that, as recommended by Frow et al (Med. Res. Rev. 24:276-98) this is the concentration of MCP-1 which induces maximal migration in this system. This solution was divided into three pots, as for the cell suspension. To one pot, the BSCI was added to the same final concentration as was added to the cell suspension, in the second pot the BSCI and the sstr2 antagonist were both added at the same concentration as previously added to the cell suspension, while to the remaining pot GBSS+BSA plus vehicle as appropriate was added so that the volumes in the three pots were equal.
Once the chemoattractant solutions for the lower wells and cell solutions for the upper chambers were prepared, the migration chamber was assembled. 29 μl of the appropriate chemoattractant solution was placed into the lower well of the chamber. Assays were performed with at least triplicate determinations of each condition. Once all the lower chambers were filled, the porous membrane was applied to the chamber in accordance with the manufacturer's instructions. Finally, 25 μl of the appropriate cell solution was applied to each upper chamber. A plastic lid was placed over the entire apparatus to prevent evaporation.
The assembled chamber was incubated at 37° C., 5% CO2, for 2 hours.
At the end of the incubation, the liquid cell suspension was gently removed from the upper chamber, 20 μl of ice-cold 20 mM EDTA in PBS was added to the upper chamber, and the apparatus was incubated at 4° C. for 15 mins. This procedure caused any cells adhering to the underside of the membrane to fall into the lower chamber.
After this incubation the filter was carefully flushed with GBSS+BSA to wash off the EDTA, and then the filter was removed.
The number of cells migrated into the lower chamber under each condition can then be determined by a number of methods, including direct counting, labelling with fluorescent or radioactive markers or through the use of a vital dye. Typically, we utilised the vital dye MTT.

[1] = test system: rat peripheral blood leukocytes; assay: Rat chemokine-induced PBMC migration assay; type: cell-based; settings: Table 3; GH suppression vs rat PBMC migration

| Molecule | RATIO (THP-1 cells; Table 5) | “Classical”:“BSCI” potency ratio Human (THP-1 cells) | “Classical”:“BSCI” potency ratio Rat [1] | RATIO (THP-1 cells; Table 4) |
| --- | --- | --- | --- | --- |
| (S)-3-(2′,2′-dimethyldodecanoyl)amino-caprolactam [BN83250] | <0.00009 | – | – | – |
| O=C1NCCCC[C@@H]1NC(=O)C12CC3CC(CC(C3)C1)C2 [BN83470, (S)-3-(admantane-1′-carbonylamino)-caprolactam] | – | <0.00008 | 0.0008 | – |
| CC(C)(C)C(=O)N[C@H]1CCCNC1=O [Valerolactam, (S)-3-(2′,2′-dimethylpropionoylamino)-tetrahydropyridin-2-one] | – | <0.00005 | 0.0009 | – |
| C[C@@H](c1c[nH]c2ccccc12)[C@@H](NC(=O)N1CCC(n2c(=O)[nH]c3ccccc32)CC1)C(=O)NC[C@@H]1CCC[C@H](CN)C1 [L-779,976] | 26.5 | 27 | – | 26.5 |
